# Patent publication US11884647B2, “Compounds and methods for targeting pathogenic blood vessels” (THE REGENTS OF THE UNIVERSITY OF CALIFORNIA, priority 2019, dated 2024)
# The name of at least one read-out is uncertain.
# Tested on: tumor endothelial cells (LL/2 lung cancer tumor)
# Assay: Lung LL2 ex vivo model of tumor angiogenesis
# Format: cell-based, mouse
# Method: This example describes a procedure to prepare a primary tumor angiogenesis model for assessing the efficacy of anti-cancer candidate agents.
# 1. The day before the experiment, spray all necessary tools with 70% ethanol and sterilize them under UV light overnight, including blade, dissecting and micro-dissecting scissors and […]. Place 24-well dishes at 4° C. to pre-chill plates and thaw Matrigel 24 hours before tumor dissection.
# 2. Spray 70% ethanol on working bench. Prepare two sterile petri dishes with 10 mL sterile PBS. Steps 3 and 4 are for mouse tumor models. For fresh human tumor, directly go to step 5.
# 3. Euthanize the tumor-bearing mice. Spray 70% ethanol on the mouse and remove the tumor using sterilized dissecting tools (avoid the fur). Rinse the tumor in petri dish with sterile PBS to remove ethanol and fur. Transfer the tumor to a new petri dish with PBS for dissection. Place the dish on ice.
# 4. […]
# 9. When the assay is ready to be analyzed for cell death (e.g., 48 hours after drug addition), prepare the dye mixture by mixing 6 μL of green dye to stain live cells (5 mg/mL Fluorescein diacetate or FDA in DMSO) with 30 μL of red dye (2.5 mg/mL Propidium iodide or PI in PBS) to stain dead cells in an Eppendorf tube. […]
# 14. Taking pictures in the red and green channels would allow not only the recording of the result but also more accurate quantitation of the result. […]
SMILES,48 hrs (morphology observations after 48 hours) (Conc. 40 μm),48 hrs (morphology observations after 48 hours) (Conc. 10 μm)
"CCCCOc1ccc(S(=O)(=O)c2cnc3ccc(SC)cc3c2N2CCC(N3CCC(O)(c4ccccc4)CC3)CC2)cc1 [compound 232, 1′-(3-((4-butoxyphenyl)sulfonyl)-6-(methylthio)quinolin-4-yl)-4-phenyl-[1,4′-bipiperidin]-4-ol]",0,–
"CCCCCCCOc1ccc(S(=O)(=O)c2cnc3ccc(SC)cc3c2N2CCC(N3CCC(O)(c4ccccc4)CC3)CC2)cc1 [compound 262, 1′-(3-((4-(heptyloxy)phenyl)sulfonyl)-6-(methylthio)quinolin-4-yl)-4-phenyl-[1,4′-bipiperidin]-4-ol]",–,0
